These are yes or no findings as the source states them, for the method shown. In cells and extracts the contact can be indirect. A result given as binding can be weak or reduced; the word gives no strength. For some of these results: Where a sequence is shown, tags or fusion partners need not be part of it.
Key:
Assay in all cases: co-IP; anti-FLAG M2 antibody on protein A-Sepharose; membrane fraction of Y. enterocolitica solubilised with 1% DDM in 50 mM Tris-HCl pH 7.5, 300 mM NaCl, 5 mM EDTA; 4°C overnight; native conditions; immunoblot; strains with the pspA operon under tacp or its native promoter
[1] = target: T1, PspB-3×FLAG (Y. enterocolitica)
T1 sequence: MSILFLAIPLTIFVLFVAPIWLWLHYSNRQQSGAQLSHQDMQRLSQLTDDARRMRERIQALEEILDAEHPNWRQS

[2] = target: PspC-3×FLAG (Y. enterocolitica)
[3] = target: YsaC-3×FLAG (Y. enterocolitica)

PspC (from UniProt A0ACH1C6X0) was tested, and the binding [1] was “binds”.

For YsaC-His6 (Y. enterocolitica), the binding [1] was “binds”.

In the case of pIV-His6 (E. coli filamentous phage f1), the binding [1] is reported as “binds”.

For “pIV-His6 mutant isolate 104 (K419I) (E. coli filamentous phage f1)”, the binding [1] was “no binding”.

B1: PilQ-His6 (protein, UniProt P34750 25-714)
chain: DLEKLDVAALPGDRVELKLQFDEPVAAPRGYTIEQPARIALDLPGVQNKLGTKNRELSVGNTRSVTVVEAKDRTRLIINLTALSSYTTRVEGNNLFVVVGNSPAGASVASAAPVKASPAPASYAQPIKPKPYVPAGRAIRNIDFQRGEKGEGNVVIDLSDPTLSPDIQEQGGKIRLDFAKTQLPDALRVRLDVKDFATPVQFVNASAQSDRTSITIEPSGLYDYLVYQTDNRLTVSIKPMTTEDAERRKKDNFAYTGEKLSLNFQDIDVRSVLQLIADFTDLNLVASDTVQGNITLRLQNVPWDQALDLVLKTKGLDKRKLGNVLLVAPADEIAARERQELEAQKQIAELAPLRRELIQVNYAKAADIAKLFQSVTSDGGQEGKEGGRGSITVDDRTNSIIAYQPQERLDELRRIVSQLDIPVRQVMIEARIVEANVGYDKSLGVRWGGAYHKGNWSGYGKDGNIGIKDEDGMNCGPIAGSCTFPTTGTSKSPSPFVDLGAKDATSGIGIGFITDNIILDLQLSAMEKTGNGEIVSQPKVVTSDKETAKILKGSEVPYQEASSSGATSTSFKEAALSLEVTPQITPDNRIIVEVKVTKDAPDYQNMLNGVPPINKNEVNAKILVNDGETIVIGGVFSNEQSKSVEKVPFLGELPYLGRLFRRDTVTDRKNELLVFLTPRIMNNQAIAIGR
In the case of B1, the binding [2] is reported as “no binding”.

B2: PspB (protein, UniProt A0ACH1C6W1 1-75)
chain: T1 sequence
In the case of B2, the binding [2] is reported as “binds” and the binding [3] is reported as “binds”.

Source: article PMC5596341
